From PubChem BioAssay AID624291 (National Center for Advancing Translational Sciences (NCATS), 2012)
Out of some 350,000 compounds screened, about 220 (0.063%) were called active. This list was built around the results that the source calls inconclusive (neither active nor inactive); the mix of calls is not that of the screen. Calls follow the shape of the dose curve; as a rule, active = well fitted activation curve with a large enough effect; inconclusive = small, poorly fitted or top-dose-only effect; inactive = no such curve, though single readings can be large or run the other way. A potency beside an inconclusive call is a rough fit, not a confirmed value.

test: qHTS for Activators of Integrin-Mediated Alleviation for Muscular Dystrophy; conditions: alpha7betagal myoblasts, beta-gal FDG fluorescence, 48 h; activation: at 38.3 µM (top of the series); also: nearly all actives have a fitted effect of over 60% in size;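 as to activation: 100% = response of the positive control SU9516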
Summary of the method: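 alpha7betagal+/- myoblasts (passage 13, 250/well) treated 48 h at 37C with compounds at 1:260 dilution of DMSO stock. Lysed, then beta-galactosidase activity read as FDG fluorescence (ex 480/em 540) after 30 min, with pre-read for autofluorescence.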
Potency is read from the fitted curve at half-maximal effect.

SMILES | activation | Potency
Cc1cc(=O)oc2cc(OCC(=O)OCC(=O)Nc3ccc4ccccc4c3)ccc12 | inactive: -12.1% | 
NC(=O)[C@@H]1CCCN1Cc1nc(-c2ccccc2)no1 |  | inconclusive: 3.55 µM [activator, single point]
CSCC(C)N1CCC(n2nccc2NC(=O)CCCc2ccccc2)CC1 (stereo not given) |  | inconclusive: 1.26 µM [activator, full curve, poor fit]
OC(COc1ccccc1)CN(Cc1ccccc1)CC(O)COc1ccccc1 (stereo not given) | inactive: -18.9% | 
CN(C)S(=O)(=O)c1cccc(NC(=O)CSc2nc3ccccc3[nH]2)c1 | inactive: -29.6% | 
COc1ccc(NC(=S)N2CCN(S(=O)(=O)c3ccccc3)CC2)cc1 |  | inconclusive: 5.01 µM [activator, single point]
CC1CCN(C(=O)CNS(=O)(=O)c2ccc(Br)s2)CC1 |  | inconclusive: 28.2 µM [activator, single point]
COc1ccc(C(=O)O/N=C(\N)c2ccc(Br)cc2)cc1 |  | inconclusive: 5.01 µM [activator, partial curve, poor fit]
C(#Cc1ccccc1)Cn1nnc2ccccc21 |  | inconclusive: 5.01 µM [activator, single point]
O=C(O)c1cccc(Nc2nc(-c3ccccc3)nc3ccccc23)c1 |  | inconclusive: 28.2 µM [activator, single point]
CCCN1CNC(=S)N(c2ccccc2C)C1 |  | inconclusive: 1 µM [activator, partial curve, poor fit]
Cc1ccc2nc3sc(C(=O)N4CCCc5ccccc54)c(N)c3cc2c1 | inactive: 8.54% | 
Cc1cc(Cl)cc(C)c1OCCOCCNCc1ccccc1 | inactive: -81.3% | 
Oc1ccccc1CNCC12CC3CC(CC(C3)C1)C2 |  | inconclusive: 22.4 µM [activator, single point]
Cc1noc(C)c1CCC(=O)NC1CCCN(Cc2ccc(CC(C)C)cc2)C1 (stereo not given) |  | inconclusive: 5.01 µM [activator, single point]
CNC(=S)N/N=C(\C)c1cccc(C(F)(F)F)c1 |  | inconclusive: 5.01 µM [activator, single point]
CN(C)C(=O)CS(=O)(=O)c1ccc(Cl)cc1 |  | inconclusive: 8.91 µM [activator, single point]
Cc1nc2ccccn2c1C(=O)OCC#N |  | inconclusive: 3.98 µM [activator, single point]
Cc1cc(S(=O)(=O)N(C)CCc2ccccc2)ccc1-n1cnnn1 | inactive: -35.1% | 
COc1ccc(Cc2n[nH]c(=S)n2NC(=O)Nc2ccc(Cl)c(Cl)c2)cc1 |  | inconclusive: 2.51 µM [activator, partial curve, poor fit]
COc1cc(C)c(S(=O)(=O)n2nnc3ccccc32)cc1C |  | inconclusive: 3.98 µM [activator, full curve, poor fit]
Nc1c(C(=O)c2ccccc2)oc2ccc([N+](=O)[O-])cc12 |  | inconclusive: 28.2 µM [activator, single point]
O=C(Nc1ccc(S(=O)(=O)Nc2ncccn2)cc1)c1ccccc1NS(=O)(=O)c1ccc(Cl)cc1 |  | inconclusive: 2.51 µM [activator, full curve, poor fit]

SMILES | activation | Potency
CN(CCNC(=O)C1CCCN(c2ncnc3c2nc2n3CCCCC2)C1)Cc1ccccc1 (stereo not given) |  | inconclusive: 2.82 µM [activator, single point]
N=C1C(c2ccccc2)=C(O)CN1c1cccc(S(N)(=O)=O)c1 |  | inconclusive: 10 µM [activator, single point]
CCc1nnc(NC(=O)CCC(=O)NC2CC2)s1 |  | inconclusive: 28.2 µM [activator, single point]
Cc1cccc(Nc2nc(N)c([N+](=O)[O-])c(N3CCCC(C)C3)n2)c1 (stereo not given) | inactive: -48.1% | 
CCc1nc2ccc(C(=O)O)cc2nc1CC | inactive: -5.19% | 
CCN(CC)c1cc(C)c2cc(NC(=O)CNC(C)=O)ccc2n1 |  | inconclusive: 8.91 µM [activator, partial curve, poor fit]
N=C1S/C(=C\c2ccco2)C(=O)N1c1ccc2c(c1)OCO2 | inconclusive: -1.11% [activator] | 
N#C/C(=C\Nc1ccccc1SC(F)(F)F)c1nc(-c2ccc(Cl)cc2)cs1 |  | inconclusive: 2.82 µM [activator, partial curve, poor fit]
O=C(O)c1ccccc1C(=O)NC1=NN(c2ccccc2)CC1 |  | inconclusive: 28.2 µM [activator, single point]
COc1ccc(CCNC(=O)CCNS(=O)(=O)c2cc(Br)cnc2N)cc1OC |  | inconclusive: 0.501 µM [activator, full curve, poor fit]
Cc1noc2ncnc(Sc3ccc(Br)cc3)c12 |  | inconclusive: 28.2 µM [activator, single point]
Cc1c(NC(=O)C(C)Sc2nnc(-c3ccccc3)o2)c(=O)n(-c2ccccc2)n1C (stereo not given) |  | inconclusive: 31.6 µM [activator, partial curve, poor fit]
O=S(=O)(Nc1cc(Cl)ccc1N1CCOCC1)c1ccccc1Cl |  | inconclusive: 5.01 µM [activator, single point]
CCn1c(SCC(=O)Nc2ccccc2)nc2nc3c(cc2c1=O)COC(C)(C)C3 |  | inconclusive: 3.55 µM [activator, single point]
O=C(NNC(=O)c1ccc(-c2ccccc2)cc1)Nc1ccccc1F |  | inconclusive: 2.82 µM [activator, single point]
O=C(/C=C/c1ccccc1)N1CCN(c2c(Cl)cccc2[N+](=O)[O-])CC1 | inactive: 6.62% | 
COc1cc(NS(=O)(=O)c2ccc(-c3ccc(=O)[nH]n3)o2)cc(OC)c1OC |  | inconclusive: 28.2 µM [activator, single point]
COc1ccc(NC(=O)c2cccnc2N2CCOCC2)cc1 |  | inconclusive: 2.82 µM [activator, single point]
CCCN1CNc2c(c(=O)[nH]c(=S)n2CCc2ccc(OC)c(OC)c2)C1 | inactive: 42.6% | 
COc1ccc2c(c1)Sc1ccccc1N2 | inactive: -13.8% | 
CN(C(=S)NC(=O)Cc1ccccc1)c1ccccc1 | inactive: -4.66% | 
COc1ccccc1CCC(=O)NNC(=O)c1ccc(Br)cc1 |  | inconclusive: 28.2 µM [activator, single point]

Single records (already shown):
COc1ccccc1CCC(=O)NNC(=O)c1ccc(Br)cc1 is listed with Potency: inconclusive: 28.2 µM [activator, single point]
N#C/C(=C\Nc1ccccc1SC(F)(F)F)c1nc(-c2ccc(Cl)cc2)cs1 is listed with Potency: inconclusive: 2.82 µM [activator, partial curve, poor fit]
Cc1cccc(Nc2nc(N)c([N+](=O)[O-])c(N3CCCC(C)C3)n2)c1 (stereo not given) is listed with activation: inactive: -48.1%
